Measured values as given in the supplement of paper PMC10849652.
The other results are listed elsewhere or left out.

Sequences of proteins named here, by UniProt entry; tags and fusion partners are left off. A change or cut given only in a name is not applied to a line headed by its entry.
UniProt Q9UBP0: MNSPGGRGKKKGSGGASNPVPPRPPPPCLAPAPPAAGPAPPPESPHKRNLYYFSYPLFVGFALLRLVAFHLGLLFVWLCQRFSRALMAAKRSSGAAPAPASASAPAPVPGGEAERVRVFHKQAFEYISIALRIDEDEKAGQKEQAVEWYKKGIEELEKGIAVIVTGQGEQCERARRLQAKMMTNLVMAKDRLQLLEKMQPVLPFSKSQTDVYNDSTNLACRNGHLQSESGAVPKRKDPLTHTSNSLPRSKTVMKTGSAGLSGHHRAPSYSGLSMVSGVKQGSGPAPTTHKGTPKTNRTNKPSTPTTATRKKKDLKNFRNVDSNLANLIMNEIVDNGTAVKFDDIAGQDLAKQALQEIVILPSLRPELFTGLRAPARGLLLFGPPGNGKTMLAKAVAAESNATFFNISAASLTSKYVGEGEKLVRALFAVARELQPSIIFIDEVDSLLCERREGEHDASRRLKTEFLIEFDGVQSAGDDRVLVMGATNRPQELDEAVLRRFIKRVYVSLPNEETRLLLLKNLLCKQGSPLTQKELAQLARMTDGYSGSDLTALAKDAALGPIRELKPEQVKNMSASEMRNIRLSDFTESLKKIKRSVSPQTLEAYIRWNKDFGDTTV
UniProt Q9HD15: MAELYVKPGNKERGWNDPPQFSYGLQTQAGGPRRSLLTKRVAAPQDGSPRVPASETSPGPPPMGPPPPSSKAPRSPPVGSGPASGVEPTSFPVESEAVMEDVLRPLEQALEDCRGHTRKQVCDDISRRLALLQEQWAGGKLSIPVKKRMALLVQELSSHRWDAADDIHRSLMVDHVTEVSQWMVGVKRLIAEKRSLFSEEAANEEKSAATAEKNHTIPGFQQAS
UniProt P84103: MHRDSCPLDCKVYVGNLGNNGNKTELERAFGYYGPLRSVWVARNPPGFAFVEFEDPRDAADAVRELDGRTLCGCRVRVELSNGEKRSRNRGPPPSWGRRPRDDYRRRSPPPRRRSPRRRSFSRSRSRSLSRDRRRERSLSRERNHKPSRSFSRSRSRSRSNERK
UniProt Q8WVM7: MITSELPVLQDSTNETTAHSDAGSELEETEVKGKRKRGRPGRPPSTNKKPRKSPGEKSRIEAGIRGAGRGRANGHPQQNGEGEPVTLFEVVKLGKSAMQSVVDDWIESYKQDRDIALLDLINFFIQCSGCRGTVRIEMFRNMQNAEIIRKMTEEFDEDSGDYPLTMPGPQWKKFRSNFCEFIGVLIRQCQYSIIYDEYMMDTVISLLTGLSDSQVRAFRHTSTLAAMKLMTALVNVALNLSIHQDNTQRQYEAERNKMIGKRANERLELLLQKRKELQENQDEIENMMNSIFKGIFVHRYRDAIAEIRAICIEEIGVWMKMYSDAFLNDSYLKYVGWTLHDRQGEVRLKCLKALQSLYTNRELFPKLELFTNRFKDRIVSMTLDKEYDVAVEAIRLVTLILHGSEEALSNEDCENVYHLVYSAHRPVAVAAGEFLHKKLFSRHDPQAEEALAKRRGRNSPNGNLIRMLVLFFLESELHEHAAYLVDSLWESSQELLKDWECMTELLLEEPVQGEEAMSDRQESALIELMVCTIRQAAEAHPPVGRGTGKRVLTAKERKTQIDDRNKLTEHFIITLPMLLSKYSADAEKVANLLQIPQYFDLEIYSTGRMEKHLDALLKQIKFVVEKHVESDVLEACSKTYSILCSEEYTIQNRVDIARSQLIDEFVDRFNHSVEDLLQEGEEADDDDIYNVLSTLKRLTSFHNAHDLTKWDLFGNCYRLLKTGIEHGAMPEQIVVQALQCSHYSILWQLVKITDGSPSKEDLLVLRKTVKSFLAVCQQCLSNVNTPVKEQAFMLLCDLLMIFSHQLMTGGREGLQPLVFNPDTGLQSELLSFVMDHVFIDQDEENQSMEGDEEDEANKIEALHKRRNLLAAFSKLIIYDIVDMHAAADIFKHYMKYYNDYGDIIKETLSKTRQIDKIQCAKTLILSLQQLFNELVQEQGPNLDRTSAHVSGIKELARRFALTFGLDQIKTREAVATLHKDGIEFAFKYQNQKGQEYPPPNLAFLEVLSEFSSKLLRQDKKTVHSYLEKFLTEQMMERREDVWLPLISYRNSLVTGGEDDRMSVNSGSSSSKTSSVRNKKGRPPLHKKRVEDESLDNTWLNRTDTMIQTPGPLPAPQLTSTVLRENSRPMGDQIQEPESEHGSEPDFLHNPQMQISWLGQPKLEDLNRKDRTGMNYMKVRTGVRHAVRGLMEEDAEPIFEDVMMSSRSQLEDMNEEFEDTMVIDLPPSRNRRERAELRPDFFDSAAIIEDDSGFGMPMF
UniProt Q8TCT7: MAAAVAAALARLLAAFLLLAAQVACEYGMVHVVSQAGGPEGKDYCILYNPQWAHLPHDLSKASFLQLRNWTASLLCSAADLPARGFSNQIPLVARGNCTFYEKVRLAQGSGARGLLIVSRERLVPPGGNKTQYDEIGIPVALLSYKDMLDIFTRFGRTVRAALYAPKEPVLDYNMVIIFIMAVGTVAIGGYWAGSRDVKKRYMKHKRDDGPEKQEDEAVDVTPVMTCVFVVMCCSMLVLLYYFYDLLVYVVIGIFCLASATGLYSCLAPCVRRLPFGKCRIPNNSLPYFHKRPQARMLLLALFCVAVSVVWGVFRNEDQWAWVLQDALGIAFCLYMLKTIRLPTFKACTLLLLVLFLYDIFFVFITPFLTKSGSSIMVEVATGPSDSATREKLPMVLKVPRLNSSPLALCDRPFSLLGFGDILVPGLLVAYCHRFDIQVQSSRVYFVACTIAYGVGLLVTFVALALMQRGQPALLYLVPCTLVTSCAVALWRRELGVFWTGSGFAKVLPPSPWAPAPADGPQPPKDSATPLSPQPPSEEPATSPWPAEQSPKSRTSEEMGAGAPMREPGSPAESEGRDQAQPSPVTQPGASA
UniProt P61011: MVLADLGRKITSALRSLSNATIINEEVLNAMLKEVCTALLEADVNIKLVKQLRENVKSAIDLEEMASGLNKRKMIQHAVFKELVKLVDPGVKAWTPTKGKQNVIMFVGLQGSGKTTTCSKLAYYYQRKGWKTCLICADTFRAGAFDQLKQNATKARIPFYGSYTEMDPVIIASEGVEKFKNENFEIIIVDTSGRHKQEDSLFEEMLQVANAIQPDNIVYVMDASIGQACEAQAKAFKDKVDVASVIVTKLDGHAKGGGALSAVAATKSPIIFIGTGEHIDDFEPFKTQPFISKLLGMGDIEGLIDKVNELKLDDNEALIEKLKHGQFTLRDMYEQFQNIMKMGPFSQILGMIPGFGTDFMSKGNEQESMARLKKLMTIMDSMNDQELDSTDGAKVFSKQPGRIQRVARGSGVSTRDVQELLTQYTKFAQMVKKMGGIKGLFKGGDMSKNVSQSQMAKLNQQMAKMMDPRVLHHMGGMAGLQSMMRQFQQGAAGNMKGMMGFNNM
UniProt Q16842: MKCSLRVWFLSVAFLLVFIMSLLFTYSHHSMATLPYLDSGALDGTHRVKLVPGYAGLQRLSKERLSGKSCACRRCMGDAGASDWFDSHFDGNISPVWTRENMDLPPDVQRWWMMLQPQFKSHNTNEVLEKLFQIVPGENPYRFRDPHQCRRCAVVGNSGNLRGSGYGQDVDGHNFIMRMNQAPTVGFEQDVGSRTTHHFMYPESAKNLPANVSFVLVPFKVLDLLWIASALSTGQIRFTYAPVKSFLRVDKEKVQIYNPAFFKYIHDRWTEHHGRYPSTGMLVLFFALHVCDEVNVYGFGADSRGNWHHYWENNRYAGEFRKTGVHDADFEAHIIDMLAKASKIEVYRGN
UniProt Q07955, whole entry, looked up: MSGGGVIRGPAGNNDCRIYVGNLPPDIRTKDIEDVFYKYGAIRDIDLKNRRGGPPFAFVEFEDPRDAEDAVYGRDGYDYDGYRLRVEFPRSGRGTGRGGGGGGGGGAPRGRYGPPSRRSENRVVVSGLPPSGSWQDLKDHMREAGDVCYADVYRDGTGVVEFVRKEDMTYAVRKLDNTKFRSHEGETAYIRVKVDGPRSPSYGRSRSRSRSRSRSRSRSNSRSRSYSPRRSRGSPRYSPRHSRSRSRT
UniProt Q9NSC7: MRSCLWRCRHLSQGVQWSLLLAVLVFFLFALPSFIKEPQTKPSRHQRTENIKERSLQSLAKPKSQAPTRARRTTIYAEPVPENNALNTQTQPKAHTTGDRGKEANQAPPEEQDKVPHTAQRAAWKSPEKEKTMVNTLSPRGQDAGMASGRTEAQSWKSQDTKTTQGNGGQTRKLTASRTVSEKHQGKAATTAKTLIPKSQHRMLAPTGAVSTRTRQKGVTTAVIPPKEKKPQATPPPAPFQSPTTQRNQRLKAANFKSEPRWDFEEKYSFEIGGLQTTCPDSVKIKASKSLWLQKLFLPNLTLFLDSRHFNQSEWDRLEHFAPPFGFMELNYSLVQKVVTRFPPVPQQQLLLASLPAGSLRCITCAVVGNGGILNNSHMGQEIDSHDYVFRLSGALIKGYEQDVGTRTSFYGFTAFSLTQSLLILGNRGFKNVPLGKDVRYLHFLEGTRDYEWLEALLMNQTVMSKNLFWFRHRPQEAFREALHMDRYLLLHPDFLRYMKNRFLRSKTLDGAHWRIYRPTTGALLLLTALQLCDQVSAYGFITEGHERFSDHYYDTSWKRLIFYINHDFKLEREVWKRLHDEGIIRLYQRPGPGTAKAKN
UniProt Q9Y6E0: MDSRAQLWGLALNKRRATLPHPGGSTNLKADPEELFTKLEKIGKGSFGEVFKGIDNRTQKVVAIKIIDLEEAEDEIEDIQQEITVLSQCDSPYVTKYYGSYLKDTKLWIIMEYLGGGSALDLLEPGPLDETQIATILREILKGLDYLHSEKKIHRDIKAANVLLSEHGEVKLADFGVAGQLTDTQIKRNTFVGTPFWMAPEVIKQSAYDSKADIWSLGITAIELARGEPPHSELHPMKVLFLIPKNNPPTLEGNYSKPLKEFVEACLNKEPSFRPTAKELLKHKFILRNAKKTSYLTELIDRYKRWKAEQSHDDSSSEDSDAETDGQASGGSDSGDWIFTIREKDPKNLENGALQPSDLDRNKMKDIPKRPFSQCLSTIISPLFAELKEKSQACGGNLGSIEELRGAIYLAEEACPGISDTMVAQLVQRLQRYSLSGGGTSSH
UniProt P40763, whole entry, looked up: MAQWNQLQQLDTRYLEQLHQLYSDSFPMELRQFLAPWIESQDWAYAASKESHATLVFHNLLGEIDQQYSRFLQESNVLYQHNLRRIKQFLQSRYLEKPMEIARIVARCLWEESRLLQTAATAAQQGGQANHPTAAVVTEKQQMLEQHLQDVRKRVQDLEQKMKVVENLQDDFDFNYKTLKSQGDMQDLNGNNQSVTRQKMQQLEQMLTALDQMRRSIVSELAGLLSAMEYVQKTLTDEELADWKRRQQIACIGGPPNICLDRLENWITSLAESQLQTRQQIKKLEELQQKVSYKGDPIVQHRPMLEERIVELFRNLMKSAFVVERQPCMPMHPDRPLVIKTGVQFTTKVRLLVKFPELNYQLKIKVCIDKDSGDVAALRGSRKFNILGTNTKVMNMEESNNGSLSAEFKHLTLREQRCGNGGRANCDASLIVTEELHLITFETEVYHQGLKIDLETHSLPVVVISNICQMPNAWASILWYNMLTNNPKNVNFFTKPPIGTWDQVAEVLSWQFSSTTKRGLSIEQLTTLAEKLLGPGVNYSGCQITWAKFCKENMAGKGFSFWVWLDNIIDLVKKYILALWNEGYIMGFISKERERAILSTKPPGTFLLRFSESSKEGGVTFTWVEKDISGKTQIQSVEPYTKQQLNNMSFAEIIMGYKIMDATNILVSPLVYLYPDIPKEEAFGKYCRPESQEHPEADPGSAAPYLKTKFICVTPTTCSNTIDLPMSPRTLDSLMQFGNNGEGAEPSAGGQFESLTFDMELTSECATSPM
UniProt P42229: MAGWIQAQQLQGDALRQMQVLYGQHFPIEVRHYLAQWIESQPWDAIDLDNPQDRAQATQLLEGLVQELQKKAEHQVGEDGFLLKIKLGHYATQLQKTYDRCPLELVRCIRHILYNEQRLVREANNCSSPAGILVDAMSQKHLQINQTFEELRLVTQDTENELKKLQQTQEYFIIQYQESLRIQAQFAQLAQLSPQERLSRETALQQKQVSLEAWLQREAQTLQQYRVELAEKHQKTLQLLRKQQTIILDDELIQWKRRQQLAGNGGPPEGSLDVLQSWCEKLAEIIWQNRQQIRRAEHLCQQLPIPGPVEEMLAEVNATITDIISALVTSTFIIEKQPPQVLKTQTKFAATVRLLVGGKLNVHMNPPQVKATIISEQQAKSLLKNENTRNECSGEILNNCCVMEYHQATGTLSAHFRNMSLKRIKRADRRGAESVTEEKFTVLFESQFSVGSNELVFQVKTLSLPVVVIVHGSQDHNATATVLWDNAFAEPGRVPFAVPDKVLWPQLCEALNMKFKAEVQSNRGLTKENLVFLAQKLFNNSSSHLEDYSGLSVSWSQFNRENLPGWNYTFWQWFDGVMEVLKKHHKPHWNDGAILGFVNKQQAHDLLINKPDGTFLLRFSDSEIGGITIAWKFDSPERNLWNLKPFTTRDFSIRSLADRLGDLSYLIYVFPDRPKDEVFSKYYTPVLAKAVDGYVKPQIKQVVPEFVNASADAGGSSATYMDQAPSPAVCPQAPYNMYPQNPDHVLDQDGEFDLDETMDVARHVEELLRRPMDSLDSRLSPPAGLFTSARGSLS

compound: C[C@@H]1COCCN1C2=NC(=NC(=C2)C3(CC3)S(=O)(=O)C)C4=C5C=CNC5=CC=C4; assay: log2 fold change, soluble protein after heating vs DMSO (PISA); higher = thermal stabilisation; K562 cells, 10 uM, 30 min; active = over 0.2 and 3.5 SD of the protein, either way, in both replicates (recomputed)
Procedure, shortened: (§1)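 Soluble protein was quantified by TMTpro 16plex LC-MS/MS after channel sums were equalised. It was obtained as the supernatant after 21,000xg for 90 min from pooled aliquots of K562 cells (2×10^6 cells/mL, 10 μM compound, 30 min) heated for 3 min across 48°C-58°C and extracted in PBS with 0.5% NP-40 at 4°C. Thermal stability values are relative to control samples and come from duplicates. They are given as log2 fold changes.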

log2 fold change, inactive:
SPAST (UniProt Q9UBP0) 0.043
SPIRE2 (UniProt Q8WWL2) 0.351
SPHK1 isoform 2 (UniProt Q9NYA1) 0.084
SPPL2A (UniProt Q8TCT8) 0.002
SRA1 (UniProt Q9HD15) 0.13
STIM1 (UniProt Q13586) 0.087
SPTBN1 (UniProt Q01082) 0.008
SRSF3 (UniProt P84103) -0.27
SPECC1 (UniProt Q5M775) -0.02
STAG1 (UniProt Q8WVM7) -0.03
SPPL2B (UniProt Q8TCT7) -0.072
SRP54 (UniProt P61011) 0.031
ST3GAL2 (UniProt Q16842) -0.017
SRSF1 (UniProt Q07955) -0.269
STAT1 (UniProt P42224) -0.218
STAT5B (UniProt P51692) -0.037
ST6GALNAC1 (UniProt Q9NSC7) 0.007
STEAP3 isoform 2 (UniProt Q658P3) 0.022
SPRYD4 (UniProt Q8WW59) 0.049
SRGAP2 (UniProt O75044) 0.111
SRPK2 isoform 2 (UniProt P78362) -0.559
SPART (UniProt Q8N0X7) 0.056
STK24 (UniProt Q9Y6E0) 0.069
STAT3 (UniProt P40763) 0.105
SPECC1L (UniProt Q69YQ0) 0.04
SSU72 (UniProt Q9NP77) 0.007
SPTLC1 (UniProt O15269) 0.022
SRFBP1 (UniProt Q8NEF9) -0.21
STAU2 (UniProt Q9NUL3) -0.168
STAT5A (UniProt P42229) 0.08
SRSF4 (UniProt Q08170) -0.248
SRP72 (UniProt O76094) -0.017
SRSF7 (UniProt Q16629) -0.311
SSR4 (UniProt P51571) 0.081
SPTBN4 (UniProt Q9H254) -0.024
SPATA5L1 (UniProt Q9BVQ7) 0.006
SPG11 (UniProt Q96JI7) -0.282
STAT6 (UniProt P42226) 0.028
STARD9 (UniProt Q9P2P6) 0.012
SREK1 isoform 2 (UniProt Q8WXA9) -0.005

compound: C[C@H](C1=CC=C(C=C1)C(=O)NC2=C3C=CNC3=NC=C2)N; assay: as above
Procedure, shortened: as §1

log2 fold change, inactive:
SPAST (UniProt Q9UBP0) 0.001
SPIRE2 (UniProt Q8WWL2) -0.086
SPHK1 isoform 2 (UniProt Q9NYA1) -0.064
SPPL2A (UniProt Q8TCT8) 0.06
SRA1 (UniProt Q9HD15) -0.033
STIM1 (UniProt Q13586) -0.028
SPTBN1 (UniProt Q01082) 0.039
SRSF3 (UniProt P84103) 0.128
SPECC1 (UniProt Q5M775) 0.045
STAG1 (UniProt Q8WVM7) -0.084
SPPL2B (UniProt Q8TCT7) 0.006
SRP54 (UniProt P61011) -0.024
ST3GAL2 (UniProt Q16842) 0.006
SRSF1 (UniProt Q07955) 0.1
STAT1 (UniProt P42224) 0.378
STAT5B (UniProt P51692) -0.014
ST6GALNAC1 (UniProt Q9NSC7) 0.123
STEAP3 isoform 2 (UniProt Q658P3) -0.013
SPRYD4 (UniProt Q8WW59) 0.028
SRGAP2 (UniProt O75044) 0.098
SRPK2 isoform 2 (UniProt P78362) 0.43
SPART (UniProt Q8N0X7) 0.101
STK24 (UniProt Q9Y6E0) 0
STAT3 (UniProt P40763) -0.063
SPECC1L (UniProt Q69YQ0) -0.002
SSU72 (UniProt Q9NP77) 0.042
SPTLC1 (UniProt O15269) 0.037
SRFBP1 (UniProt Q8NEF9) 0.061
STAU2 (UniProt Q9NUL3) 0.407
STAT5A (UniProt P42229) -0.036
SRSF4 (UniProt Q08170) 0
SRP72 (UniProt O76094) 0.167
SRSF7 (UniProt Q16629) 0.045
SSR4 (UniProt P51571) -0.054
SPTBN4 (UniProt Q9H254) 0.098
SPATA5L1 (UniProt Q9BVQ7) 0.006
SPG11 (UniProt Q96JI7) 0.619
STAT6 (UniProt P42226) -0.011
STARD9 (UniProt Q9P2P6) 0.049
SREK1 isoform 2 (UniProt Q8WXA9) -0.345
